Earlier results, collected in patent US5792920A, “Plants with altered ability to synthesize starch and process for obtaining them” (Imperial Chemical Industries PLC, priority 1988, dated 1998).
At least one structure is not confirmed: it was looked up by name or label, or the drawing left a doubt.

How the values were obtained:
[1] = test system: plant leaf ADP-glucose pyrophosphorylase; conditions: all plant leaf enzymes studied; cited from earlier work
[2] = test system: ADP-glucose pyrophosphorylase enzyme from maize endosperm; conditions: cited from earlier work

O=C(O)C(O)COP(=O)(O)O (centres unmarked) [3-phosphoglycerate]
activation in vitro [1]: activated in vitro | activation in vitro [2]: activated in vitro by 3-phosphoglycerate to a similar extent as the enzyme isolated from plant leaves
